# The whole screen tested about 360,000 compounds, of which about 780 (0.22%) were called active. Inconclusive means that the source gave no clear call. Such entries were picked first, then a sample of the others. Rule as the data show it: active = inhibition above about 35% (passing the limit was not always enough); inconclusive = no clear call, values can overlap the other calls.
# Test system: Botulinum neurotoxin type F light chain protease (Clostridium botulinum)
# Assay: BoNT/F light chain protease inhibitors, primary screen, biochemical, flow cytometry, MLPCN library (AID 588497); also: plate controls were buffer without enzyme for full effect and enzyme alone for no effect
# Details: Multiplex microsphere protease cleavage assay, at 10 µM, stronger effect = higher value
row,Structure (SMILES),inhibition
1,CC(CC(=O)Nc1nccs1)c1ccccc1 (stereo not drawn),inconclusive: 12%
2,COC(=O)c1cc(S(=O)(=O)NCCCN2CCCC2=O)cn1C,inactive: -4.1%
3,Cc1cc(C(=O)NNc2cc(Cl)ccc2Cl)no1,inconclusive: -22.8%
4,O=c1ccc(-c2ccc(S(=O)(=O)NCC3CCN(Cc4ccccc4F)CC3)s2)n[nH]1,inconclusive: -7.9%
5,NC1=NC(=O)/C(=C/c2cccs2)S1,inactive: -1.9%
6,COc1ccc(C2=NOC(C(=O)NCc3ccccc3)C2)cc1 (stereo not drawn),inactive: -2.1%
7,O=S(=O)(CCN1CCN(c2ccccn2)CC1)c1ccc(Cl)cc1Cl,inconclusive: 95.7%
8,CC(SC1=NCCN1S(C)(=O)=O)c1ccccc1 (stereo not drawn),inactive: 2.6%
9,Cc1ccc(N2CC(=O)N(c3ccc(C)cc3)CC2=O)cc1,inconclusive: -26.7%
10,O=C(O)CC1(CC(=O)Nc2cc(C(F)(F)F)cc(C(F)(F)F)c2)CCCCC1,inconclusive: 2.3%
11,CCOC(=O)N1CCN(C(=O)C2CC(c3ccccc3OC)=NO2)CC1 (stereo not drawn),inactive: 8.7%
12,Cc1cc(OCC(=O)OCC(=O)N2CC(C)CC(C)C2)ccc1Cl (stereo not drawn),inconclusive: 3.4%
13,Cc1cc(NC(=O)COC(=O)C2CC(=O)N(c3ccccc3)C2)no1 (stereo not drawn),inactive: 3.7%
14,CC(=O)N1N=C(c2ccco2)CC1c1ccco1 (stereo not drawn),inconclusive: -1.6%
15,COc1cc(C(C)=O)ccc1OC(=O)N(C)c1ccccc1,inconclusive: 1.4%
16,Cc1noc(C)c1NC(=O)NC(c1ccccc1)c1ccccc1,inconclusive: -73.8%
17,COc1cc(NC(=O)CSCc2ccc(Cl)cc2Cl)c(C(=O)O)cc1OC,inconclusive: 29.2%
18,O=C(Nc1ccc(Cl)c(C(F)(F)F)c1)[C@@H]1CC=C[C@@H]2CCN(Cc3ccc(Cl)c(Cl)c3)C(=O)[C@@H]21,inactive: -5.9%
19,CCOc1cccc(CN2CCCC(N3CCc4cc(OC)c(OC)cc4C3)C2)c1O (stereo not drawn),inconclusive: -1.9%
20,Cc1ccccc1NC(=S)N(CCCN1CCOCC1)Cc1ccccn1,active: 38.6%

# 3 records picked at random from those above, as already listed:
row,Structure (SMILES),inhibition
3,Cc1cc(C(=O)NNc2cc(Cl)ccc2Cl)no1,inconclusive: -22.8%
15,COc1cc(C(C)=O)ccc1OC(=O)N(C)c1ccccc1,inconclusive: 1.4%
13,Cc1cc(NC(=O)COC(=O)C2CC(=O)N(c3ccccc3)C2)no1 (stereo not drawn),inactive: 3.7%

# Continued:

row,Structure (SMILES),inhibition
1,CCOc1ccccc1-c1nc(-c2cc3ccc(C)cc3[nH]c2=O)no1,inactive: 4.6%
2,CC(C)Oc1ccc(S(=O)(=O)N2CCOCC2)cc1NC(=O)Cc1cccs1,inconclusive: -260%
3,COc1ccc(-n2c(SCC(=O)N3CCCCC3)nc(O)cc2=O)cc1,inactive: -2.9%
4,COc1ccc(C(=O)Nc2nc(N)n(-c3ccccc3)n2)cc1OC,inconclusive: -19.3%
5,Cc1nnc(C)n1N,inactive: -2.7%
6,CCN(CC)CCN(Cc1cc2cc3c(cc2[nH]c1=O)OCO3)C(=S)NCC(C)C,inconclusive: 30.7%
7,CC1(C)Cc2c(cnn2-c2ccccc2)C(NC(=O)c2ccoc2)C1 (stereo not drawn),inactive: 1.1%
8,CC1(C)C(=O)Nc2ccccc2N1C(=O)COc1cc(Cl)ccc1Cl,inconclusive: -12.4%
9,CN(C(=S)NC(=O)C1CCCC1)c1ccccc1,inactive: -1.7%
10,CN(Cc1c(C(=O)N/N=C/c2cc(F)ccc2F)nnn1-c1nonc1N)C1CCCCC1,inactive: 3.4%
11,CCOC(=O)C1CCN(C(=O)COc2ccc(S(=O)(=O)N3CCOCC3)cc2C)CC1,inactive: 1%
12,CCCCC(C(=O)N/N=C/c1ccccn1)C(=O)N/N=C/c1ccccn1,inconclusive: -31.8%
13,Cc1cccc(-c2ccc(C=Nc3c(C)n(C)n(-c4ccccc4)c3=O)o2)c1,inconclusive: -50.4%
14,CC(=O)N1c2ccc(C)cc2C(c2ccccc2)CC1C (stereo not drawn),inconclusive: -7.8%
15,O=C(CN1CCCCC1)c1ccc2c(c1)OCO2,inconclusive: 31.5%
16,Fc1cccc(Cn2ccc(-c3ccc4c(c3)OCO4)n2)c1,inconclusive: -1.5%
17,CN(C)CC(c1ccccc1)c1ccccc1,inconclusive: -1.4%
18,CCOC(=O)C(=CNc1ccc(C(F)(F)F)cc1)C(=O)OCC,inconclusive: 123%
19,COc1ccc2[nH]c(=O)c(CN(c3ccc(C)c(C)c3)S(C)(=O)=O)cc2c1,inactive: -1.1%
20,Cc1ccc(C(=O)NNC(=O)c2nn(-c3ccc(F)cc3)ccc2=O)cc1,inconclusive: 35.2%

row,Structure (SMILES),inhibition
1,COc1ccc(-c2cc(=O)c3c(O)cc(OC4OC(COC5OC(C)C(O)C(O)C5O)C(O)C(O)C4O)cc3o2)cc1O (stereo not drawn),inactive: -4.2%
2,O=C(NCCO)/C(=C/c1ccco1)NC(=O)c1ccco1,inconclusive: 90%
3,COc1ccccc1NC(=O)C1CCOC1=O (stereo not drawn),inconclusive: -9.6%
4,O=C1C(C2=NC(c3ccccn3)C3C(=O)N(c4ccc(OC(F)(F)F)cc4)C(=O)C23)=C(O)c2ccccc21 (stereo not drawn),inconclusive: -27.1%
5,CN1CCC(C2(O)c3ccccc3CCc3ccccc32)CC1,inactive: 19.3%
6,Cc1cc(C)c(OCC(=O)N(Cc2ccc(N(C)C)cc2)C2CCS(=O)(=O)C2)c(C)c1 (stereo not drawn),inconclusive: -105%
7,NC(=O)c1ncc(C(F)(F)F)cc1Oc1ccc(F)cc1,inconclusive: -6.9%
8,CCCc1cc(=O)oc2cc(OCC(=O)NCC(O)c3ccccc3)ccc12 (stereo not drawn),inactive: 2.2%
9,COc1ccc(N2CCN(C3CCCN(Cc4ccc(F)cc4)C3)CC2)cc1 (stereo not drawn),inconclusive: 15.7%
10,CCCCNS(=O)(=O)c1cccc(NC(=O)[C@H]2C[C@H](O)[C@@H](CO)O2)c1,inactive: -3.9%
11,O=C(CN1CCN(Cc2ccc(F)cc2)CC1)Nc1nc2ccccc2s1,inconclusive: 21.4%
12,CCOc1ccccc1-c1cc(C(=O)N/N=C/c2ccc3c(c2)OCO3)c2ccccc2n1,inactive: -11.4%
13,CC(=O)c1cccc(Nc2c3c(nc4ccccc24)CCC3)c1,inconclusive: 6.4%
14,C=C(C(=O)c1ccccc1)C(CC(=O)c1ccccc1)c1ccccc1 (stereo not drawn),inactive: 1.5%
15,S=C(NCCc1ccccc1)Nc1c(Cl)cccc1Cl,inconclusive: -20.1%
16,CCOP(=O)(CN(CC)C(=O)c1ccccc1Br)OCC,inconclusive: 198%
17,COc1cc(OC)c(/C=N/NC(=O)c2ccncc2)c(OC)c1,inconclusive: -98.4%
18,O=C(c1cccc(F)c1)N1CCN(Cc2ccc3c(c2)OCO3)CC1,inconclusive: -41%

# From PubChem BioAssay AID588497 (NMMLSC, 2011)
